No constants are given. Whether binding was seen depends on the method and setting. Binding seen in cells or lysates may run through a third protein. These calls come from enrichment with a bait or labelling near it, and not all partners need be listed.
Biological target: TGF-β1 (bait of the pull-down for mass spectrometry) (UniProt P04202)
Assay: affinity purification with mass spectrometry; pull-down samples of TGF-β1 and of PKA, in-gel trypsin digestion, Q Exactive

By UniProt entry, the sequences of proteins in these tests, tags left out. Residues count along the entry.
UniProt P04202, residues 30-390: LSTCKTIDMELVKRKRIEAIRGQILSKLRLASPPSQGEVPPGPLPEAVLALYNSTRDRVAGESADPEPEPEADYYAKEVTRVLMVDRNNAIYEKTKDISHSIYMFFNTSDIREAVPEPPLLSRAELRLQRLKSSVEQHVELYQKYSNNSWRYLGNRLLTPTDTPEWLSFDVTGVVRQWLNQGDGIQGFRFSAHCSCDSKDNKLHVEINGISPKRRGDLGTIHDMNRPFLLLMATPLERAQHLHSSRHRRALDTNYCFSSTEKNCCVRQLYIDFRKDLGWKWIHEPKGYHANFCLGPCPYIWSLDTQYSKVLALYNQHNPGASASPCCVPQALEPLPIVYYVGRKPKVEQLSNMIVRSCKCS
UniProt Q9WUD1: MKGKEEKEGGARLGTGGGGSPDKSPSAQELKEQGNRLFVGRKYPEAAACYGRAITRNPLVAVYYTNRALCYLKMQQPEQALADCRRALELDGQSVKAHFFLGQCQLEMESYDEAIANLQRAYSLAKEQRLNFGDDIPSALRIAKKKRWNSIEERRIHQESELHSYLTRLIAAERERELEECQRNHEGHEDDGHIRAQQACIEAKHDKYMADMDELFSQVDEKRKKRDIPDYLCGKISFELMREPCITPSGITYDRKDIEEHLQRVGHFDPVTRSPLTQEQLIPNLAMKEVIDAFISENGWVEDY

With “CHIP (found by mass spectrometry) (from UniProt Q9WUD1 1-304) (enzyme)” the binding was “binds”.
